Results are given in words; binding and its absence hold for the method and conditions named. A result given as binding can be weak or reduced; the word gives no strength. Tags and fused reporters may be left off the sequences shown.
Biological target: Nlp-CC2 domain, GST-tag purified protein
Experiment: pull-down; GST-tag purified proteins of Nlp truncates with SEC31A or Rab1B purified protein freed of GST by Thrombin; both purified

B1: SEC31A purified protein (GST removed by Thrombin) (protein, UniProt O94979 1-1220)
chain: MKLKEVDRTAMQAWSPAQNHPIYLATGTSAQQLDATFSTNASLEIFELDLSDPSLDMKSCATFSSSHRYHKLIWGPYKMDSKGDVSGVLIAGGENGNIILYDPSKIIAGDKEVVIAQNDKHTGPVRALDVNIFQTNLVASGANESEIYIWDLNNFATPMTPGAKTQPPEDISCIAWNRQVQHILASASPSGRATVWDLRKNEPIIKVSDHSNRMHCSGLAWHPDVATQMVLASEDDRLPVIQMWDLRFASSPLRVLENHARGILAIAWSMADPELLLSCGKDAKILCSNPNTGEVLYELPTNTQWCFDIQWCPRNPAVLSAASFDGRISVYSIMGGSTDGLRQKQVDKLSSSFGNLDPFGTGQPLPPLQIPQQTAQHSIVLPLKKPPKWIRRPVGASFSFGGKLVTFENVRMPSHQGAEQQQQQHHVFISQVVTEKEFLSRSDQLQQAVQSQGFINYCQKKIDASQTEFEKNVWSFLKVNFEDDSRGKYLELLGYRKEDLGKKIALALNKVDGANVALKDSDQVAQSDGEESPAAEEQLLGEHIKEEKEESEFLPSSGGTFNISVSGDIDGLITQALLTGNFESAVDLCLHDNRMADAIILAIAGGQELLARTQKKYFAKSQSKITRLITAVVMKNWKEIVESCDLKNWREALAAVLTYAKPDEFSALCDLLGTRLENEGDSLLQTQACLCYICAGNVEKLVACWTKAQDGSHPLSLQDLIEKVVILRKAVQLTQAMDTSTVGVLLAAKMSQYANLLAAQGSIAAALAFLPDNTNQPNIMQLRDRLCRAQGEPVAGHESPKIPYEKQQLPKGRPGPVAGHHQMPRVQTQQYYPHGENPPPPGFIMHGNVNPNAAGQLPTSPGHMHTQVPPYPQPQPYQPAQPYPFGTGGSAMYRPQQPVAPPTSNAYPNTPYISSASSYTGQSQLYAAQHQASSPTSSPATSFPPPPSSGASFQHGGPGAPPSSSAYALPPGTTGTLPAASELPASQRTGPQNGWNDPPALNRVPKKKKMPENFMPPVPITSPIMNPLGDPQSQMLQQQPSAPVPLSSQSSFPQPHLPGGQPFHGVQQPLGQTGMPPSFSKPNIEGAPGAPIGNTFQHVQSLPTKKITKKPIPDEHLILKTTFEDLIQRCLSSATDPQTKRKLDDASKRLEFLYDKLREQTLSPTITSGLHNIARSIETRNYSEGLTMHTHIVSTSNFSETSAFMPVLKVVLTQANKLGV
- binding: binds

— article PMC11186355
